# Measured values published in PubChem BioAssay AID662 (National Center for Advancing Translational Sciences (NCATS), 2007).
# This is one part of the list. These are further read-outs of the screen, such as a control signal, another cell line or another target. No call is given for them. Compounds called inactive in the main read-out are mostly missing here. Words in brackets tell the shape of the fitted curve; partial curves, single points and poor fits give uncertain potencies.
# Test: Cell signaling CRE-BLA (Fsk stim)
# Settings: CHO CRE-bla reporter (cAMP response element driving beta-lactamase), forskolin EC10, beta-lactamase ratio; measured here: 460 nm blue channel
# Method in brief: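 Titrated compounds plus EC10 NKH 477 on CHO CRE-bla cells, 3 h, 37 °C. CCF4, 2 h RT. Ratio 460/530 nm → AC50.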
row,Structure (SMILES),AC50
1,Cc1nc(-c2ccccc2)nc2[nH]c(C(C)C)cc(=O)c12,"12.6 µM [rising, partial curve]"
2,O=C(CSc1ccc(Cl)cc1)c1ccco1,"3.98 µM [falling, partial curve]"
3,CCCCCCOC(=O)C(C#N)c1nc2ccccc2nc1N1CCCCC1 (centres undefined),"12.6 µM [rising, single point]"
4,CC(C)(C)c1cc(C(=O)N2CCc3ccccc32)ccn1,"12.6 µM [falling, partial curve]"
5,CC(C)C(NS(=O)(=O)c1ccc2c(c1)OCCO2)C(=O)NCCc1ccccn1 (centres undefined),"0.0794 µM [falling, full curve, poor fit]"
6,Cc1ccc(S(=O)(=O)Nc2nncs2)cc1,"0.0126 µM [falling, full curve, poor fit]"
7,CN(C)c1nc2n(c(=O)n1)CCO2,"5.01 µM [falling, single point]"
8,Cc1n[nH]c(C)c1N1C(=O)c2cccc3c(N4CCCCCC4)ccc(c23)C1=O,"3.98 µM [rising, partial curve]"
9,CC(C)OC(=O)CC(=O)CSc1nc2c(cc1C#N)CCCC2,"12.6 µM [rising, partial curve]"
10,COc1cc(NC2c3ncccc3C(=O)N2Cc2ccco2)cc(OC)c1 (centres undefined),"0.0501 µM [rising, partial curve, poor fit]"
11,COc1ccccc1-c1nc(NC(C)=O)n[nH]1,"31.6 µM [falling, partial curve]"
12,CC(C)n1c(SCc2ccc(Cl)cc2)nc2c1c(=O)[nH]c(=O)n2C,"12.6 µM [rising, partial curve]"
13,CNc1nnc(-c2cccc(N(C)C)c2)s1,"15.8 µM [rising, single point]"
14,CCc1nc(SCC(=O)Nc2cc(C)on2)c2c(C)c(C)sc2n1,"2.51 µM [rising, full curve]"
15,CCN(CC)CCNC(=O)C1CCC(=O)N1CCc1ccccc1 (centres undefined),"31.6 µM [falling, partial curve]"
16,Nc1c(-c2ccc(Cl)cc2)nnn1-c1ccccc1,"15.8 µM [rising, partial curve, poor fit]"
17,Cc1cc(C)n(-c2nc(SCC(=O)N3CCCC3)c3c4c(sc3n2)CCCC4)n1,"5.01 µM [falling, single point]"
18,COc1ccccc1CNc1ncnc2ccc(-c3ccc(N(C)C)cc3)cc12,"5.01 µM [rising, full curve]"
19,CCOC(=O)Cc1[nH]nc2c1C(C1C=CCCC1)C(C#N)=C(N)O2 (centres undefined),"5.01 µM [falling, partial curve]"
20,CCCCn1c(SCc2cccnc2)nc2c1c(=O)n(C)c(=O)n2C,"12.6 µM [rising, partial curve]"
21,N#Cc1cccc(NC(=O)NCCc2c[nH]c3ccccc23)c1,"10 µM [falling, partial curve]"
22,COc1ccc(-c2nnc(SC(=O)N3c4ccccc4Sc4ccccc43)o2)cc1,"0.631 µM [falling, full curve, poor fit]"

row,Structure (SMILES),AC50
1,CC1S/C(=C(\C#N)C(=O)NCc2ccco2)N(c2ccc(F)cc2)C1=O (centres undefined),"1.58 µM [rising, single point]"
2,Cc1cc(NC(c2cccnc2)c2ccc3cccnc3c2O)no1 (centres undefined),"3.16 µM [falling, partial curve]"
3,CN1CCc2c(sc3c2C(=O)NC(c2cccc(OC(=O)c4cccs4)c2)N3)C1 (centres undefined),"10 µM [rising, partial curve]"
4,CCOC(=O)c1c(NC(=O)c2ccco2)sc(C(=O)N2CCCC2)c1C,"10 µM [rising, partial curve]"
5,CCc1nc(N2CCOCC2)c(C#N)c2c1COC(C)(C)C2,"12.6 µM [rising, partial curve]"
6,CCOC(=O)c1sc2nc(SCC#N)n(CCCN3CCCC3=O)c(=O)c2c1C,"10 µM [rising, single point]"
7,O=C(CCSc1ccccc1)Nc1ccc(S(=O)(=O)N2CCOCC2)cc1,"12.6 µM [falling, single point]"
8,CCN(CC)CCn1cnc2c([nH]c3cccc(OC)c32)c1=O,"3.16 µM [falling, full curve]"
9,COc1ccc(-c2nc3cnc(Oc4cccc(Cl)c4)nc3n(C3CC3)c2=O)cc1,"2.51 µM [rising, full curve]"
10,CCc1nc(C)cn1S(=O)(=O)c1cc(Br)ccc1OC,"25.1 µM [rising, single point]"
11,Cc1cc(-n2c(=O)c(C#N)cc3c(=O)n4cccc(C)c4nc32)no1,"3.98 µM [rising, full curve]"
12,CC1CCN(S(=O)(=O)c2ccc3c(c2)c(=O)c(C(=O)NC2CCCC2)cn3C)CC1,"5.01 µM [falling, partial curve, poor fit]"
13,CC(C)C(NS(=O)(=O)c1cccs1)C(=O)N1CCc2ccccc2C1 (centres undefined),"10 µM [rising, single point]"
14,CCCCn1cnc2c1c(=O)n(C)c(=O)n2C,"12.6 µM [rising, partial curve]"
15,O=C(CN1CCSCC1)N1CCc2[nH]c3ccc(Br)cc3c2C1,"25.1 µM [rising, single point]"
16,N#CC1=C(N)C(C#N)(C#N)[C@H](c2ccoc2)[C@H]2CN(Cc3ccccc3)CC=C12,"10 µM [rising, partial curve]"
17,CCNc1ncc2nc(-c3cccs3)c(=O)n(Cc3cccs3)c2n1,"0.794 µM [rising, full curve]"
18,COCCNC(=O)c1cn(C)c(=O)c2cc(OC)c(OC)cc12,"12.6 µM [rising, partial curve]"
19,O=c1oc2ccc(Br)cc2cc1-c1nc2ccccc2o1,"3.98 µM [rising, partial curve]"
20,CC1Cc2ccccc2N1C(=O)CSCC(=O)O (centres undefined),"20 µM [rising, single point]"
21,CC1CCN(CCCNC(=O)c2ccc(CS(=O)(=O)Cc3ccccc3F)o2)CC1,"25.1 µM [rising, single point]"
22,Cc1ccc(-c2nnc(SCC(=O)N3CCCC3)o2)cc1C,"0.00631 µM [falling, full curve, poor fit]"

# 9 structures from above, sorted by heavy-atom count, smallest number first:
row,Structure (SMILES),AC50
11,COc1ccccc1-c1nc(NC(C)=O)n[nH]1,"31.6 µM [falling, partial curve]"
16,Nc1c(-c2ccc(Cl)cc2)nnn1-c1ccccc1,"15.8 µM [rising, partial curve, poor fit]"
5,CCc1nc(N2CCOCC2)c(C#N)c2c1COC(C)(C)C2,"12.6 µM [rising, partial curve]"
15,O=C(CN1CCSCC1)N1CCc2[nH]c3ccc(Br)cc3c2C1,"25.1 µM [rising, single point]"
14,CCc1nc(SCC(=O)Nc2cc(C)on2)c2c(C)c(C)sc2n1,"2.51 µM [rising, full curve]"
11,Cc1cc(-n2c(=O)c(C#N)cc3c(=O)n4cccc(C)c4nc32)no1,"3.98 µM [rising, full curve]"
7,O=C(CCSc1ccccc1)Nc1ccc(S(=O)(=O)N2CCOCC2)cc1,"12.6 µM [falling, single point]"
16,N#CC1=C(N)C(C#N)(C#N)[C@H](c2ccoc2)[C@H]2CN(Cc3ccccc3)CC=C12,"10 µM [rising, partial curve]"
22,COc1ccc(-c2nnc(SC(=O)N3c4ccccc4Sc4ccccc43)o2)cc1,"0.631 µM [falling, full curve, poor fit]"
